Assay results reported in US20240122985A1, “ANTIBODIES, COMBINATIONS COMPRISING ANTIBODIES, BIOMARKERS, USES & METHODS” (KYMAB LIMITED, priority 2016, published 2024).

Experiment: Expression in stable Lonza pools (shake flask fed batch overgrow)
Settings: stable pool

B1: 2D10 IgG4PE: fully human anti-human OX40L monoclonal antibody, human IgG4-PE; VH Seq ID No:34, VL Seq ID No:48; 2D10-1 to -4 are stable pools (antibody, V domains shown)
VH: EVQLVESGGGLVQPGGSLRLSCAASGFTFSNYAMNWVRQAPGKGLEWVSTISGSGGATRYADSVKGRFTISRDNSRNTVYLQMNSLRVEDTAVFYCTKDRLIMATVRGPYYYGMDVWGQGTTVTVSS
VL: DIQMTQSPSSLSASVGDRVTITCRASQSISSYLNWYQQKPGKAPNLLIYAASSLQSGVPSRFSGSGSETDFTLTISSLQPEDFATYYCQQSHSVSFTFGPGTKVDIK
modifications: human IgG4-PE constant regions; 02D10 - VH Amino Acid Sequence; 02D10 - VL Amino Acid Sequence
Day 7
  Concentration, Day 7: 261 mg/L
Day 7, listed as 2D10-2
  Concentration, Day 7: 245 mg/L
Day 7, listed as 2D10-3
  Concentration, Day 7: 317 mg/L
Day 7, listed as 2D10-4
  Concentration, Day 7: 372 mg/L
Day 8
  Concentration, Day 8: 492 mg/L
Day 8, listed as 2D10-2
  Concentration, Day 8: 461 mg/L
Day 8, listed as 2D10-3
  Concentration, Day 8: 528 mg/L
Day 8, listed as 2D10-4
  Concentration, Day 8: 677 mg/L
Day 9
  Concentration, Day 9: 681 mg/L
Day 9, listed as 2D10-2
  Concentration, Day 9: 665 mg/L
Day 9, listed as 2D10-3
  Concentration, Day 9: 731 mg/L
Day 9, listed as 2D10-4
  Concentration, Day 9: 785 mg/L
Day 10
  Concentration, Day 10: 993 mg/L
Day 10, listed as 2D10-2
  Concentration, Day 10: 983 mg/L
Day 10, listed as 2D10-3
  Concentration, Day 10: 1163 mg/L
Day 10, listed as 2D10-4
  Concentration, Day 10: 1286 mg/L
Day 11
  Concentration, Day 11: 1157 mg/L
Day 11, listed as 2D10-2
  Concentration, Day 11: 1127 mg/L
Day 11, listed as 2D10-3
  Concentration, Day 11: 1367 mg/L
Day 11, listed as 2D10-4
  Concentration, Day 11: 1350 mg/L
Day 12
  Concentration, Day 12: 1590 mg/L
Day 12, listed as 2D10-2
  Concentration, Day 12: 1485 mg/L
Day 12, listed as 2D10-3
  Concentration, Day 12: 1785 mg/L
Day 12, listed as 2D10-4
  Concentration, Day 12: 1935 mg/L
Day 13
  Concentration, Day 13: 1530 mg/L
Day 13, listed as 2D10-2
  Concentration, Day 13: 2025 mg/L
Day 13, listed as 2D10-3
  Concentration, Day 13: 1905 mg/L
Day 13, listed as 2D10-4
  Concentration, Day 13: 1965 mg/L
Day 14
  Concentration, Day 14: 1575 mg/L
Day 14, listed as 2D10-2
  Concentration, Day 14: 1995 mg/L
Day 14, listed as 2D10-3
  Concentration, Day 14: 1860 mg/L
Day 14, listed as 2D10-4
  Concentration, Day 14: 1800 mg/L
